PubChem BioAssay AID200 (DTP/NCI, 2004)
The list shows only some results of the screen, not a fair sample: it gathers tests that were run many times, whatever their T/C, doses with no T/C, and many T/C values between a quarter and a half above the control. Other doses and runs of a compound stand elsewhere. T/C gives the treated animals as a percentage of the vehicle group. Some entries give survivors of the animals treated and no T/C: the source holds a T/C of zero for them, seemingly a mark for toxic or unscored doses. Some doses without a T/C left all or most animals alive at the check, yet need not have been tolerated: the source hardly ever lists a survival T/C far under the control, and the zero likely stands for such cases as well. Survivors were counted at the toxicity check, usually on the fifth day, unless a day is given; later deaths do not show. Schedule codes are those of the source, taken here to give the interval after Q, in days (D) or hours (H), and the number of doses after X. Some entries were tested several times; the results are listed from low to high. Where survival is the endpoint, this PubChem deposit counts one and a half times the control or more as active, and values a quarter to a half above the control carry no call in these data; other NCI protocols may use other cut-offs. Some T/C values are followed by the survivors on the day toxicity was checked, most often the fifth; without a count, all were alive then.

System: B6C3F1 mice, B16 melanoma ip, median survival T/C
Test: NCI In Vivo Anticancer Drug Screen. Data for tumor model B16 Melanoma (intraperitoneal) in B6C3F1 mice
Conditions: T/C endpoint: median survival time, higher T/C = longer survival
Outline: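 Transplantable tumor in mice; treated vs vehicle control groups; survival or tumor size measured; value = T/C ratio.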

[1] = dose: 20.0 mg/kg/injection, schedule: Q01DX009 (ip), vehicle: saline
[2] = dose: 12.5 mg/kg/injection, schedule: Q01DX009 (ip), vehicle: Klucel (hydroxypropylcellulose) (HPC)
[3] = dose: 12.5 mg/kg/injection, schedule: Q01DX009 (ip), vehicle: saline
[4] = dose: 50.0 mg/kg/injection, schedule: Q01DX009 (ip), vehicle: suspension in saline
[5] = dose: 200.0 mg/kg/injection, schedule: Q01DX009 (ip), vehicle: water
[6] = dose: 400.0 mg/kg/injection, schedule: Q01DX009 (ip), vehicle: saline with Tween-80
[7] = dose: 200.0 mg/kg/injection, schedule: Q01DX009 (ip), vehicle: Klucel (hydroxypropylcellulose) (HPC)
[8] = dose: 400.0 mg/kg/injection, schedule: Q01DX009 (ip), vehicle: Klucel (hydroxypropylcellulose) (HPC)
[9] = dose: 100.0 mg/kg/injection, schedule: Q01DX009 (ip), vehicle: saline with Tween-80
[10] = dose: 0.05 mg/kg/injection, schedule: Q01DX009 (ip), vehicle: other
[11] = dose: 0.1 mg/kg/injection, schedule: Q01DX009 (ip), vehicle: Klucel (hydroxypropylcellulose) (HPC)
[12] = dose: 0.1 mg/kg/injection, schedule: Q01DX009 (ip), vehicle: other
[13] = dose: 0.2 mg/kg/injection, schedule: Q01DX009 (ip), vehicle: Klucel (hydroxypropylcellulose) (HPC)

Q: What does the source list for CN(C)[C@@H]1C(=O)C(C(=O)NCN2CCN(C(=N)N=C(N)N)CC2)=C(O)[C@@]2(O)C(=O)C3=C(O)c4c(O)cccc4[C@@](C)(O)[C@H]3C[C@@H]12?
A: survivor count (dose: 10.0 mg/kg/injection, schedule: Q01DX009 (ip), vehicle: saline): 8 of 10; survivor count [1]: 0 of 10

Q: How did the T/C (dose: 0.78 mg/kg/injection, schedule: Q01DX009 (ip), vehicle: saline) turn out when CCCNC1=C(C)C(=O)C2=C(C1=O)[C@H](COC(N)=O)[C@]1(OC)[C@@H]3N[C@@H]3CN21 was run?
A: 134 % of control

Q: What about the survivor count (dose: 6.25 mg/kg/injection, schedule: Q01DX009 (ip), vehicle: saline) of the same compound?
A: 10 of 10

Q: And the T/C [2]?
A: 133 % of control

Q: What about the survivor count [3] of the same compound?
A: 10 of 10

Q: How did the T/C (dose: 1.56 mg/kg/injection, schedule: Q01DX009 (ip), vehicle: saline) turn out when CCN(CC)CC[n+]1ccc2c(C)c3[nH]c4ccc(O)cc4c3c(C)c2c1 was run?
A: 132 and 140 % of control

Q: What about the T/C (dose: 1.56 mg/kg/injection, schedule: Q01DX009 (ip), vehicle: suspension in saline) of the same compound?
A: 140 % of control

Q: What about the T/C (dose: 3.12 mg/kg/injection, schedule: Q01DX009 (ip), vehicle: saline) of the same compound?
A: 148 % of control

Q: What about the T/C (dose: 3.12 mg/kg/injection, schedule: Q01DX009 (ip), vehicle: suspension in saline) of the same compound?
A: 142 % of control

Q: What about the survivor count [3] of the same compound?
A: 8 of 8

Q: What about the survivor count (dose: 12.5 mg/kg/injection, schedule: Q01DX009 (ip), vehicle: suspension in saline) of the same compound?
A: 10 of 10

Q: And the survivor count (dose: 25.0 mg/kg/injection, schedule: Q01DX009 (ip), vehicle: saline)?
A: 8 of 8

Q: And the survivor count (dose: 25.0 mg/kg/injection, schedule: Q01DX009 (ip), vehicle: suspension in saline)?
A: 10 of 10

Q: What about the survivor count (dose: 50.0 mg/kg/injection, schedule: Q01DX009 (ip), vehicle: saline) of the same compound?
A: 2 of 8

Q: And the survivor count [4]?
A: 10 of 10

Q: COC(C(=O)C(O)C(C)O)C1CC2C=C3C=C(OC4CC(OC5CC(O)C(OC)C(C)O5)C(OC(C)=O)C(C)O4)C(C)C(=O)C3=C(O)C2=C(O)C1OC1CC(OC2CC(OC3CC(C)(O)C(O)C(C)O3)C(O)C(C)O2)C(O)C(C)O1 (configuration not stated) was tested. Which T/C (dose: 2.0 mg/kg/injection, schedule: Q01DX009 (ip), vehicle: saline with Tween-80) did it give?
A: 127 % of control

Q: CC(=O)NC(C=O)OCC=O (configuration not stated) was tested. Which survivor count [5] did it give?
A: 7 of 10

Q: With Oc1cccc2ccccc12 as the compound, how does the survivor count (dose: 400.0 mg/kg/injection, schedule: Q01DX009 (sc), vehicle: other) read?
A: 0 of 10

Q: For O=C(N/N=C/c1cccc(O)c1O)N/N=C/c1cccc(O)c1O, which survivor count [6] is on record?
A: 10 of 10

Q: With NCCCCC(NC(=O)OCC1c2ccccc2-c2ccccc21)C(=O)O (configuration not stated) as the compound, how does the survivor count [7] read?
A: 10 of 10

Q: And the survivor count [8]?
A: 10 of 10

Q: For O=C1C=CC(=Nc2ccc3c(c2)C(Br)c2ccccc2-3)O1 (configuration not stated), which survivor count [1] is on record?
A: 10 of 10

Q: Which survivor count [4] does the source give for O=C(CNC(=O)OCc1ccccc1)NCC(=O)NC(Cc1c[nH]c2ccccc12)C(=O)O (configuration not stated) here?
A: 10 of 10

Q: What about the T/C (dose: 200.0 mg/kg/injection, schedule: Q01DX009 (ip), vehicle: suspension in saline) of the same compound?
A: 138 % of control

Q: What does the source list for COc1ccc(S(=O)(=O)N/N=C/C(=O)O)cc1?
A: T/C (dose: 25.0 mg/kg/injection, schedule: Q01DX009 (ip), vehicle: saline with Tween-80): 126 [9 of 10 alive] and 137 % of control; T/C (dose: 50.0 mg/kg/injection, schedule: Q01DX009 (ip), vehicle: saline with Tween-80): 138 % of control; survivor count [9]: 10 of 10; survivor count (dose: 200.0 mg/kg/injection, schedule: Q01DX009 (ip), vehicle: saline with Tween-80): 10 of 10

Q: For CN(C)/N=N/c1nc[nH]c1C(N)=O, which T/C (dose: 50.0 mg/kg/injection, schedule: Q01DX009 (ip), vehicle: distilled water + Tween-80) is on record?
A: 125 % of control

Q: What about the T/C [9] of the same compound?
A: 125 % of control

Q: And the survivor count (dose: 200.0 mg/kg/injection, schedule: Q01DX009 (ip), vehicle: distilled water + Tween-80)?
A: 8 of 10

Q: What about the survivor count (dose: 400.0 mg/kg/injection, schedule: Q01DX009 (ip), vehicle: distilled water + Tween-80) of the same compound?
A: 9 of 10

Q: What about the survivor count [6] of the same compound?
A: 9 of 10

Q: With CC(C)(O)/C=C/C(=O)[C@](C)(O)[C@H]1[C@H](O)C[C@@]2(C)[C@@H]3CC=C4[C@@H](C[C@H](O)C(=O)C4(C)C)[C@]3(C)C(=O)C[C@]12C as the compound, how does the survivor count (dose: 2.0 mg/kg/injection, schedule: Q01DX009 (ip), vehicle: saline + Tween-80 + alcohol) read?
A: 3 of 10

Q: With C=C(OP(=O)(OC)OC)Sc1ccccc1C as the compound, how does the survivor count (dose: 1.0 mg/kg/injection, schedule: Q01DX009 (ip), vehicle: Klucel (hydroxypropylcellulose) (HPC)) read?
A: 9 of 10

Q: What about the survivor count (dose: 1.5 mg/kg/injection, schedule: Q01DX009 (ip), vehicle: Klucel (hydroxypropylcellulose) (HPC)) of the same compound?
A: 8 of 10

Q: What about the survivor count (dose: 3.0 mg/kg/injection, schedule: Q01DX009 (ip), vehicle: Klucel (hydroxypropylcellulose) (HPC)) of the same compound?
A: 0 of 10

Q: And the survivor count (dose: 6.0 mg/kg/injection, schedule: Q01DX009 (ip), vehicle: Klucel (hydroxypropylcellulose) (HPC))?
A: 0 of 10

Q: What about the survivor count [2] of the same compound?
A: 0 of 10

Q: What about the survivor count (dose: 25.0 mg/kg/injection, schedule: Q01DX009 (ip), vehicle: Klucel (hydroxypropylcellulose) (HPC)) of the same compound?
A: 0 of 10

Q: What about the survivor count (dose: 50.0 mg/kg/injection, schedule: Q01DX009 (ip), vehicle: Klucel (hydroxypropylcellulose) (HPC)) of the same compound?
A: 0 of 10

Q: What about the survivor count (dose: 100.0 mg/kg/injection, schedule: Q01DX009 (ip), vehicle: Klucel (hydroxypropylcellulose) (HPC)) of the same compound?
A: 0 of 10

Q: And the survivor count [7]?
A: 0 of 10

Q: What does the source list for Nc1ccc(C(=O)O)cc1?
A: T/C [2]: 136 % of control; survivor count [5]: 10 of 10; survivor count [8]: 5 of 10; survivor count (dose: 400.0 mg/kg/injection, schedule: Q01DX009 (ip), vehicle: water): 10 of 10

Q: With CO[C@H](/C(C)=C/C=C/C(C)=C/c1coc(C)n1)[C@H](C)[C@H]1C[C@@H](O)[C@@]2(C)O[C@H]2/C=C/[C@@H](C)[C@@H]2C[C@@H](CC(=O)O2)C[C@H]2O[C@@H]2C(=O)O1 as the compound, how does the survivor count (dose: 0.03 mg/kg/injection, schedule: Q01DX009 (ip), vehicle: other) read?
A: 10 of 10

Q: What about the T/C (dose: 0.05 mg/kg/injection, schedule: Q01DX009 (ip), vehicle: Klucel (hydroxypropylcellulose) (HPC)) of the same compound?
A: 122, 123, 128, 171 % of control

Q: What about the T/C [10] of the same compound?
A: 127 % of control

Q: What about the survivor count [10] of the same compound?
A: 10 of 10

Q: And the T/C (dose: 0.05 mg/kg/injection, schedule: Q01DX009 (sc), vehicle: Klucel (hydroxypropylcellulose) (HPC))?
A: 126 % of control

Q: And the T/C [11]?
A: 124, 133, 145, 211 % of control

Q: And the survivor count [11]?
A: 9 of 10

Q: And the T/C [12]?
A: 128 % of control

Q: What about the survivor count [12] of the same compound?
A: 6 of 10

Q: And the T/C [13]?
A: 136, 142, 183, 214 % of control

Q: What about the survivor count [13] of the same compound?
A: 10 of 10

Q: What about the survivor count (dose: 0.2 mg/kg/injection, schedule: Q01DX009 (ip), vehicle: other) of the same compound?
A: 5 of 10 and 10 of 10

Q: What about the T/C (dose: 0.2 mg/kg/injection, schedule: Q01DX009 (sc), vehicle: Klucel (hydroxypropylcellulose) (HPC)) of the same compound?
A: 129 % of control

Q: And the survivor count (dose: 0.4 mg/kg/injection, schedule: Q01DX009 (ip), vehicle: Klucel (hydroxypropylcellulose) (HPC))?
A: 6 of 10 and 10 of 10

Q: And the survivor count (dose: 0.4 mg/kg/injection, schedule: Q01DX009 (ip), vehicle: other)?
A: 2 of 10 and 10 of 10

Q: And the survivor count (dose: 0.8 mg/kg/injection, schedule: Q01DX009 (ip), vehicle: Klucel (hydroxypropylcellulose) (HPC))?
A: 1 of 10, 2 of 10, 3 of 10, 8 of 10

Q: And the survivor count (dose: 0.8 mg/kg/injection, schedule: Q01DX009 (ip), vehicle: other)?
A: 1 of 10 and 4 of 10

Q: And the survivor count (dose: 0.8 mg/kg/injection, schedule: Q01DX009 (sc), vehicle: Klucel (hydroxypropylcellulose) (HPC))?
A: 9 of 10

Q: What about the survivor count (dose: 1.6 mg/kg/injection, schedule: Q01DX009 (ip), vehicle: Klucel (hydroxypropylcellulose) (HPC)) of the same compound?
A: 0 of 10
